Source: article PMC12581942

Chains of the proteins cited; added tags and fusions are not shown.
UniProt E9JUM2, entry or part of it: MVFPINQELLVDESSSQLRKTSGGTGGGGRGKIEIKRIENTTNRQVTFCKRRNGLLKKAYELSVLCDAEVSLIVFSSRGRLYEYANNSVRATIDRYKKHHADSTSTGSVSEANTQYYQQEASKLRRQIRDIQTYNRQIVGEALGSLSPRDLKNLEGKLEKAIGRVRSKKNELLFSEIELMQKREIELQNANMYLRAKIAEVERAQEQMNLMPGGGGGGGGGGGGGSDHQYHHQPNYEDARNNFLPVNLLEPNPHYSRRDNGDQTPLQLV

Molecular target: SlTAGL1-His (UniProt E9JUM2)
Test: EMSA
Details: + SlEBF3-GST (full length, E. coli), TAGL1 binding abolished; not given; Beyotime EMSA/Gel-Shift kit and Thermo LightShift Chemiluminescent EMSA kit; recombinant protein; residues 1-269; protein details: His (pET28a); label: biotin 3'

“GAATTGAGCACTTGGCTTTTGTATATAGCTTCTATGTGTACCAAAATT (double strand) [SlPSY1 promoter probe]”: no binding.

Negatives hold for the conditions tested.
